For assay [1], the target named is TRPV4 5K-CTD mutant (all five lysines of the C-terminal IDR to arginine) (human) (UniProt Q9HBA0). Description: co-IP; co-IP of PACSIN1 or RhoA with WT and K>R mutant TRPV4 (Fig. S5, H-J); cells, antibody and conditions not stated for this experiment in the text shown.
The target in assay [2] is TRPV4 R269C (neuropathy-causing mutant) (human) (UniProt Q9HBA0). Description: co-IP; HEK293T cells cotransfected with TRPV4 (WT or mutant) and Myc-tagged E3 ligase; lysed 24 h post-transfection in RIPA buffer with protease/phosphatase inhibitors and PR-619; supernatant incubated 1 h at 4 °C with Dynabeads Protein G preconjugated with anti-FLAG M2 antibody; washed with 0.2% Tween-20 in PBS; Western blot.

The chains behind the UniProt entries cited, without tags or fusion partners. Where a name states a change or a piece, a line headed by the entry shows the natural chain unless it says otherwise. A line that says so, or that is headed by a name, gives the form on record, which may keep a tag or linker.
UniProt Q9HBA0: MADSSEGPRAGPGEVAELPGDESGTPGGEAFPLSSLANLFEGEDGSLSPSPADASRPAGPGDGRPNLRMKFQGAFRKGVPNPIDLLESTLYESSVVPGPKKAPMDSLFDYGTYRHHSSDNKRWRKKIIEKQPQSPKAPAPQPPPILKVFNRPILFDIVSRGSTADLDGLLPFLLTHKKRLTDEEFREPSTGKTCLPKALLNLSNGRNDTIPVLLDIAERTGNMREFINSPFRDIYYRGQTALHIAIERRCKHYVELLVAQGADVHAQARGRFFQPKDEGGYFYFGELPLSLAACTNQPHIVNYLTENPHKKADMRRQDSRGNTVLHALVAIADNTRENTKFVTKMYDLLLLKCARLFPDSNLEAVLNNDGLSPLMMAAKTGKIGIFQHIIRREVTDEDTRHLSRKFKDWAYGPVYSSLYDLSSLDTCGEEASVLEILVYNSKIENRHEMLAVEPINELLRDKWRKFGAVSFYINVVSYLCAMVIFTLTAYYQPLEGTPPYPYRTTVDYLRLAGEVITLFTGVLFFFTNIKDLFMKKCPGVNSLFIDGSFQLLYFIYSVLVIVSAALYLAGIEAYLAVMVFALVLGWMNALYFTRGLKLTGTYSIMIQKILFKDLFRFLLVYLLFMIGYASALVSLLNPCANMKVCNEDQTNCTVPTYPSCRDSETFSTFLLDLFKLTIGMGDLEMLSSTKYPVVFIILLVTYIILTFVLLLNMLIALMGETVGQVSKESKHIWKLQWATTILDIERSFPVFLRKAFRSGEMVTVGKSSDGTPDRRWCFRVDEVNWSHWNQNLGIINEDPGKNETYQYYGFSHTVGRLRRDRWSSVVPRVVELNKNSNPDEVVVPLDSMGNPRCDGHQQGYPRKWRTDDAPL
TRPV4 5K-IDR mutant (Lys 77, 101, 130, 136 and 147 to arginine) (Q9HBA0, form named): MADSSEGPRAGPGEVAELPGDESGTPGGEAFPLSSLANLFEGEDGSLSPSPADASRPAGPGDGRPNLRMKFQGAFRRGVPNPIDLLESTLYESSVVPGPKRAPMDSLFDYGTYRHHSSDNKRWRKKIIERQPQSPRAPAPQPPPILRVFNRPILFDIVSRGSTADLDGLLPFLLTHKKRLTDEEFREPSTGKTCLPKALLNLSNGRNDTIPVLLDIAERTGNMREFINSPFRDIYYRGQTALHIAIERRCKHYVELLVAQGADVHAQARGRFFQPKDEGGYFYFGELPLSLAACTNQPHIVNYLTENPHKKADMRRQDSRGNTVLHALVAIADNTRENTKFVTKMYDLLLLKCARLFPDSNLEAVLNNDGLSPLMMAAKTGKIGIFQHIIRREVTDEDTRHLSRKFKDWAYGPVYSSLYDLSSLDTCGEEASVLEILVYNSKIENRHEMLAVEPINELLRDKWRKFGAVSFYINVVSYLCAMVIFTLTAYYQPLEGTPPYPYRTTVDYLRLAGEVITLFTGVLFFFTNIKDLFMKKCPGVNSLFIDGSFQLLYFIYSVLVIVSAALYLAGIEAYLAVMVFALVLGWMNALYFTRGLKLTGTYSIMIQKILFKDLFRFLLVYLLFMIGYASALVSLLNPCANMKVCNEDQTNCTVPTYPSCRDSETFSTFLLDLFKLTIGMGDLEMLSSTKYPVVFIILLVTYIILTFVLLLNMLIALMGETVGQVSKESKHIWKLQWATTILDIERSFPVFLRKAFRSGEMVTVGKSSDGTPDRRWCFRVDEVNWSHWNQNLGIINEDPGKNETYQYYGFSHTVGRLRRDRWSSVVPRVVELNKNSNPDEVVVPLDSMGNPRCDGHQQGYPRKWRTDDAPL
UniProt P61586: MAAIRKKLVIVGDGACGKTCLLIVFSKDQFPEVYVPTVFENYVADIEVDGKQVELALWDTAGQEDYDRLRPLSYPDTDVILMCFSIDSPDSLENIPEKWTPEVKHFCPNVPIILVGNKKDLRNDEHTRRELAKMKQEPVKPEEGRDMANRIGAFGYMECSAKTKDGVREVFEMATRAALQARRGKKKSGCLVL

Assay [3] deals with TRPV4 5K-CTD mutant (all five lysines of the C-terminal IDR to arginine) (human) (UniProt Q9HBA0). Described as above.
In assay [4] the target is TRPV4 5K-IDR mutant (Lys 77, 101, 130, 136 and 147 to arginine) (human) (UniProt Q9HBA0). The description is as above.
The target in assay [5] is C-terminally FLAG-tagged TRPV4 (transient receptor potential vanilloid 4), WT (human) (UniProt Q9HBA0). Described as above.

These are yes or no findings as the source states them, for the method shown. Binding seen in cells or lysates may run through a third protein. Binding can be weak; no strength is given.

On to RhoA-Myc (from UniProt P61586 1-193), for which, in assay [1], the binding result is given as “binds”.
For “Myc-tagged NEDD4 (from UniProt P46934-4) (enzyme)”, the binding result in assay [2], in assay [3], in assay [4] and in assay [5] was “binds” in each case.

The values are drawn from publication PMC9010760.
